Measured values taken from the supplement of paper PMC12823440, “Inhibitors supercharge kinase turnover through native proteolytic circuits” (Nature, 2025).
Structures can show the parent of a compound that is named as a salt. Some of the results follow. The calls rarely recur for the same compound in another form.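 In K562 cells expressing nanoluciferase-fused kinases, luminescence was recorded at 4 h intervals between 2 and 18 h, normalized as percent of control with DMSO at 100% and a positive control at 0%. A significant (2 sigma) signal drop marks a time point as decreased. The authors' rule for a hit is not shown and takes in more than the number of time points.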

By UniProt entry, the sequences of proteins in these tests, tags left out. Where a name states a change or a piece, a line headed by the entry shows the natural chain unless it says otherwise.
UniProt P31749: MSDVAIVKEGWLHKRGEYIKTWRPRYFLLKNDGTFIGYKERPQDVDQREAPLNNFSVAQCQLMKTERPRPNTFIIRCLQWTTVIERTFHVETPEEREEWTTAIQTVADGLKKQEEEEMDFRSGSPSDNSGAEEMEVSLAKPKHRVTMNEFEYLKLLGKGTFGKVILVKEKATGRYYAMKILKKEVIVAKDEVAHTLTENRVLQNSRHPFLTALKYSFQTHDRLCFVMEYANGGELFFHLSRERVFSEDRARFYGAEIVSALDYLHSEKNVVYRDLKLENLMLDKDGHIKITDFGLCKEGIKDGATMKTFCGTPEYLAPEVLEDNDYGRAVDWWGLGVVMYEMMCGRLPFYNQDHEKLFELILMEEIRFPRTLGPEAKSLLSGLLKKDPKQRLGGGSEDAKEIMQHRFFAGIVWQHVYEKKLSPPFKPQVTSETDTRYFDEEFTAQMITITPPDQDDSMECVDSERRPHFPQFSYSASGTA
UniProt Q9UM73: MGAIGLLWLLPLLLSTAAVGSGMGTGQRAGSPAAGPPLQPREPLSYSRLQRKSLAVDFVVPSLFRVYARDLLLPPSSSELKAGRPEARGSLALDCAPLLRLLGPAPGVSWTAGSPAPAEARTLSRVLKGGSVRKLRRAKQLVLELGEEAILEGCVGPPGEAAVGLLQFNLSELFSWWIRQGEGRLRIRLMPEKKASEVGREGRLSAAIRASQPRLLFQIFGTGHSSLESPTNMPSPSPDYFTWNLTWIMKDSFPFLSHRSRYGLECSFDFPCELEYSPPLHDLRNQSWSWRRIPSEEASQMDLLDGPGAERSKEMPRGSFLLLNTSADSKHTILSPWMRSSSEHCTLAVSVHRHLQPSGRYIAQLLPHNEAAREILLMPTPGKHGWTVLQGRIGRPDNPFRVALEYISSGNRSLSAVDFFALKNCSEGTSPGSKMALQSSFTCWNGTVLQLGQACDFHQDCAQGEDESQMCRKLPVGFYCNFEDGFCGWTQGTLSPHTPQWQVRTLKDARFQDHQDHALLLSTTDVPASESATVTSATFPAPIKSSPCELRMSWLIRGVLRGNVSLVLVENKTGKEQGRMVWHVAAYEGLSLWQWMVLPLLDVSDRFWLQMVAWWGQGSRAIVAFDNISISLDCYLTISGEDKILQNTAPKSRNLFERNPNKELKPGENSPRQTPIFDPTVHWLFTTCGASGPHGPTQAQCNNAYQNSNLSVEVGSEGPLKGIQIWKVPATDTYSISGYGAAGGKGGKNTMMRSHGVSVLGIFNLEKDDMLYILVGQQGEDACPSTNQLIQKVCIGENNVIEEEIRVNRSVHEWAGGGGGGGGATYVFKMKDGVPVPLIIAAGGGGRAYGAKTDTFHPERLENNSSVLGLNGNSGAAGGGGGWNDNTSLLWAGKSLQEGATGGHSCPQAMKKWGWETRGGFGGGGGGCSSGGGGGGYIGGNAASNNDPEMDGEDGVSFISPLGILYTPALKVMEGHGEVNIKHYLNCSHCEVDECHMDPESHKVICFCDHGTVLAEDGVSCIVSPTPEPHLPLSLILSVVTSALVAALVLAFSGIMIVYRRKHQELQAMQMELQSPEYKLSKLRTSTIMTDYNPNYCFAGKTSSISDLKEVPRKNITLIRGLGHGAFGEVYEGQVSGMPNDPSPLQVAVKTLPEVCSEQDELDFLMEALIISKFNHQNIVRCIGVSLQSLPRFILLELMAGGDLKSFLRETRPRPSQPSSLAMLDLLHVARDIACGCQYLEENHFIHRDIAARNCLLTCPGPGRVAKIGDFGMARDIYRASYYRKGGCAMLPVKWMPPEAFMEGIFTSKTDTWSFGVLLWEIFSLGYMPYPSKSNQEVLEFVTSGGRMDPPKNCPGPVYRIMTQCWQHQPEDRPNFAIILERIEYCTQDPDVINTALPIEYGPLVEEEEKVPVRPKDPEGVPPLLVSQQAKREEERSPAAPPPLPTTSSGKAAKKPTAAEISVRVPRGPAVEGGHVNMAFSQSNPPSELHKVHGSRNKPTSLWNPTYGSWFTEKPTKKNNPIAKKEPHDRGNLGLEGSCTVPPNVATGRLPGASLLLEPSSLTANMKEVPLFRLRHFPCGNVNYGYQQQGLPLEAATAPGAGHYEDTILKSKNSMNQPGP
UniProt Q96GD4, whole entry: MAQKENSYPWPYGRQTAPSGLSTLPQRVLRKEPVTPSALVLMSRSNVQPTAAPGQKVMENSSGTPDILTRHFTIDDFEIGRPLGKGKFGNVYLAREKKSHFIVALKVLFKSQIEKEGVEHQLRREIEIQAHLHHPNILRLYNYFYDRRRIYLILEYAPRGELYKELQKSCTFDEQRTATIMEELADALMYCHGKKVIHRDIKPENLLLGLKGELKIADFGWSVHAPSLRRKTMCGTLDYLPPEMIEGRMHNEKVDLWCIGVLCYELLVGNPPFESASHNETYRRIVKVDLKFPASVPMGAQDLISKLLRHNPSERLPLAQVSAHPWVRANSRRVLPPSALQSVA
UniProt P51451: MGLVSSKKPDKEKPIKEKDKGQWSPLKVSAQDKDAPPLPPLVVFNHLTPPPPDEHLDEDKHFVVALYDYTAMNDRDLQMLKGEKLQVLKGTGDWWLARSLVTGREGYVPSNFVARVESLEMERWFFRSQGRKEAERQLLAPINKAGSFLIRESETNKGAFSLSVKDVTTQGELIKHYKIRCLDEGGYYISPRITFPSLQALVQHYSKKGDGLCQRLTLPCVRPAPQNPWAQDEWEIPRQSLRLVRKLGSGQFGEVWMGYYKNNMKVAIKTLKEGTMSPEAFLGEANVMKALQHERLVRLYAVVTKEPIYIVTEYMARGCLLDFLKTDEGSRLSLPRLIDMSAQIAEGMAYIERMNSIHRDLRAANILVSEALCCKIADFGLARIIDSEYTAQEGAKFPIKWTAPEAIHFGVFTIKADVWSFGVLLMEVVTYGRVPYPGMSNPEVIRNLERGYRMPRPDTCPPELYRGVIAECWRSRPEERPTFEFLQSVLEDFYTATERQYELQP
UniProt P51813: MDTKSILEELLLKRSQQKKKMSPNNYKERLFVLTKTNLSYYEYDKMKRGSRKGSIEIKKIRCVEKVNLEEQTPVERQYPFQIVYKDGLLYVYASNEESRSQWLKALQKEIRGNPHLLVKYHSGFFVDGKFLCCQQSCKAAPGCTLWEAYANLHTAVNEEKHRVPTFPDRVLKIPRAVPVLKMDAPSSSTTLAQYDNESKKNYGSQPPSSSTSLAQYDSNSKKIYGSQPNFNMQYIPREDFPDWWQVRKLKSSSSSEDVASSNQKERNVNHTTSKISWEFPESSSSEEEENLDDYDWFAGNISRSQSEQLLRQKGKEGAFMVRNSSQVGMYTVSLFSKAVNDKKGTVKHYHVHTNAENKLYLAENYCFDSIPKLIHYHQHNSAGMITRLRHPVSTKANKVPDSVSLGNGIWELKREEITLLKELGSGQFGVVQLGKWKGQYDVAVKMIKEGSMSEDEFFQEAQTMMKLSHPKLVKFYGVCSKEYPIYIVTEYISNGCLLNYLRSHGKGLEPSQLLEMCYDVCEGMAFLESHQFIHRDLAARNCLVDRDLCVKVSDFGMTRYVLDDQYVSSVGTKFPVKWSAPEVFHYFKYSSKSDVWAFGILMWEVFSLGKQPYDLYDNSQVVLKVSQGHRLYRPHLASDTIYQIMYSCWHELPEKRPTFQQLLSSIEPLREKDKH
UniProt P15056, whole entry, looked up: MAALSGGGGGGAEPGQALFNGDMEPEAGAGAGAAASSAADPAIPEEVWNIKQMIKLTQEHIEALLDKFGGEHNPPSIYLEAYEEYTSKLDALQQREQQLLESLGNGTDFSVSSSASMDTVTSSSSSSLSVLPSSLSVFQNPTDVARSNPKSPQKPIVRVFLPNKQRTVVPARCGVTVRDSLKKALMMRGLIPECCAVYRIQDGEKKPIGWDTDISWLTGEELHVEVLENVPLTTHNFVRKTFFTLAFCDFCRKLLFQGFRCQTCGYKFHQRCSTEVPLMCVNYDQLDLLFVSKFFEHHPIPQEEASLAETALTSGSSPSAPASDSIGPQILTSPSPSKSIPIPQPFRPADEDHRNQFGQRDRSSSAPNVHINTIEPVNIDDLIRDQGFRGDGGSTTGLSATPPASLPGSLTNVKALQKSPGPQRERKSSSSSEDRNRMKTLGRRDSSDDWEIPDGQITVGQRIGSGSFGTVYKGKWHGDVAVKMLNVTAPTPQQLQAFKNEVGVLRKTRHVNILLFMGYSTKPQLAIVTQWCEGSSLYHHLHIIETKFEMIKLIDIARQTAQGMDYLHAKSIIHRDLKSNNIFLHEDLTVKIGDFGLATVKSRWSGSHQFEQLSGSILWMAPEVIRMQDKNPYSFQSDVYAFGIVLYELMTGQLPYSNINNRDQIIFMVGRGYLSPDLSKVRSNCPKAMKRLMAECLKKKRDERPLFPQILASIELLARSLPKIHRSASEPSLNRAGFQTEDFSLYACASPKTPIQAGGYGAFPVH
UniProt Q06187: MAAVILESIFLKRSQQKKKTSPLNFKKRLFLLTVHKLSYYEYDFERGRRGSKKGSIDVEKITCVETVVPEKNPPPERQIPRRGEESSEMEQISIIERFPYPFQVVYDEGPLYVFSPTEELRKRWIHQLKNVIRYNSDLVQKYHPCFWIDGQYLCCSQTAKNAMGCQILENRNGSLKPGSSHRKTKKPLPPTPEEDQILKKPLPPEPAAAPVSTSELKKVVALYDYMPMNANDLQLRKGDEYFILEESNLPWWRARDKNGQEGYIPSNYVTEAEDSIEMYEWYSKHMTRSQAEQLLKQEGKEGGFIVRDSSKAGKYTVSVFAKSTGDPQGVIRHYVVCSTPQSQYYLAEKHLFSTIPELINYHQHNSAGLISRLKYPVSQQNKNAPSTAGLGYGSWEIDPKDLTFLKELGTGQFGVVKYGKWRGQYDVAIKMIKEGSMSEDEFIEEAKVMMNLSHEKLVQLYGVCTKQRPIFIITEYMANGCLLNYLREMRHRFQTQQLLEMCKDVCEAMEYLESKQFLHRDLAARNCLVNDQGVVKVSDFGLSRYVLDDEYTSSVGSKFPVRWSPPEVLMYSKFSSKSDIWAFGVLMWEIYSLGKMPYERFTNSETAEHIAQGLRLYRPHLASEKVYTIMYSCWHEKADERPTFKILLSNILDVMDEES
UniProt Q13555: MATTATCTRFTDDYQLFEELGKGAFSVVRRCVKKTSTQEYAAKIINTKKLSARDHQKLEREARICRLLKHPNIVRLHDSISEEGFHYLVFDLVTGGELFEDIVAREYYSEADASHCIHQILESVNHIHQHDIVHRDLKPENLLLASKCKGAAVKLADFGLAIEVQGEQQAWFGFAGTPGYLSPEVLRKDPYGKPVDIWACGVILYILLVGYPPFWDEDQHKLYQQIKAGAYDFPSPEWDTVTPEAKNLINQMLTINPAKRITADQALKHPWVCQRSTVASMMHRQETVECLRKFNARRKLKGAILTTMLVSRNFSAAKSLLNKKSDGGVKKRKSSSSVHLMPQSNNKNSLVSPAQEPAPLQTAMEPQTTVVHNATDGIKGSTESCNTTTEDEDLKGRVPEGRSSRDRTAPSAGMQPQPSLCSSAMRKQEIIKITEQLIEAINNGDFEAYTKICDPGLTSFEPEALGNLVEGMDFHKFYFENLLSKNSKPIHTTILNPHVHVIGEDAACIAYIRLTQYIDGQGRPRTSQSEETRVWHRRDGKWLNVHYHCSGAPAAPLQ
UniProt Q15131: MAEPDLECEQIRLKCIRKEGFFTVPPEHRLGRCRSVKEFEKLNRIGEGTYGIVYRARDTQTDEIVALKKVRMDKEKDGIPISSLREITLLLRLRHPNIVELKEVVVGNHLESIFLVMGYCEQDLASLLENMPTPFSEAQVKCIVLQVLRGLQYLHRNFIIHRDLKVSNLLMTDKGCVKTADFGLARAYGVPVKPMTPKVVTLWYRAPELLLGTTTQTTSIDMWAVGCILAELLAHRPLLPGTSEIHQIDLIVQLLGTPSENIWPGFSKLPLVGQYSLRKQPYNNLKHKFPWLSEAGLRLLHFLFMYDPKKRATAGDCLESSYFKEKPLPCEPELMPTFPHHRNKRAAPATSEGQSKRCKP
UniProt Q00526: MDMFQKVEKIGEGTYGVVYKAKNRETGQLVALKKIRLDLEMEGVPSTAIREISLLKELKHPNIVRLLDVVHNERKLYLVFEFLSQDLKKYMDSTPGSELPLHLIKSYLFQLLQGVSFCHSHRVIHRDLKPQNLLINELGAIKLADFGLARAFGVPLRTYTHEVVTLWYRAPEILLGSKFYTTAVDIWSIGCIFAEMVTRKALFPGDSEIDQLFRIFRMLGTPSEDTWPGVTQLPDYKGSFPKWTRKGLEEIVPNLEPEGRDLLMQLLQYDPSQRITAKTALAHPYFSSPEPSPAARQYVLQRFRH
UniProt Q00535, whole entry, looked up: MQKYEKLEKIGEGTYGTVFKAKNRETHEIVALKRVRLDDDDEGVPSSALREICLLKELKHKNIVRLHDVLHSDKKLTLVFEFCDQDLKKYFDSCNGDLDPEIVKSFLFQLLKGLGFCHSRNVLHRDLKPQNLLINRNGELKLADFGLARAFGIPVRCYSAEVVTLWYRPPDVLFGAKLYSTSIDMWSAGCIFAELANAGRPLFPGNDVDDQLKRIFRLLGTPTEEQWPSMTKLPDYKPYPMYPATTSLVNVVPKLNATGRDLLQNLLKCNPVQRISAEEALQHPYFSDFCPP

Experiments:
Experiment in all cases: kinase-Nluc reporter destabilization hit call (1 = scored as downregulated) (binary); higher = compound decreases kinase abundance
Conditions in all cases: K562; 2-18 h
[1] = target: ABL1 (UniProt P00519)
[2] = target: AKT1 (UniProt P31749)
[3] = target: ALK (UniProt Q9UM73)
[4] = target: ARAF (UniProt P10398)
[5] = target: AURKA (UniProt O14965)
[6] = target: AURKB (UniProt Q96GD4)
[7] = target: AURKC (UniProt Q9UQB9)
[8] = target: BLK (UniProt P51451)
[9] = target: BMX (UniProt P51813)
[10] = target: BRAF (UniProt P15056)
[11] = tested on: BRAF_V600E
[12] = target: BTK (UniProt Q06187)
[13] = target: CAMK2A (UniProt Q9UQM7)
[14] = target: CAMK2G (UniProt Q13555)
[15] = target: CDK10 (UniProt Q15131)
[16] = target: CDK2 (UniProt P24941)
[17] = target: CDK3 (UniProt Q00526)
[18] = target: CDK4 (UniProt P11802)
[19] = target: CDK5 (UniProt Q00535)
[20] = target: CDK6 (UniProt Q00534)

Measured: kinase-Nluc reporter destabilization hit call

Fc1ccc(-c2nc(-c3c(F)cccc3F)[nH]c2-c2ccncc2)cc1 (10 µM)
inactive: [1] 0 | [2] 0 | [3] 0 | [4] 0 | [5] 0 | [6] 0 | [7] 0 | [8] 0 | [9] 0 | [10] 0 | [11] 0 | [12] 0 | [13] 0 | [14] 0 | [15] 0 | [16] 0 | [17] 0 | [18] 0 | [19] 0 | [20] 0

COc1ccc(CC(=O)Nc2nc3c(s2)CCc2ccccc2-3)cc1OC (10 µM)
inactive: [1] 0 | [2] 0 | [3] 0 | [4] 0 | [5] 0 | [6] 0 | [7] 0 | [8] 0 | [9] 0 | [10] 0 | [11] 0 | [12] 0 | [13] 0 | [14] 0 | [15] 0 | [16] 0 | [17] 0 | [18] 0 | [19] 0 | [20] 0

CN(CC(=O)N(Cc1ccc(C2CCCCC2)cc1)c1ccc(C(=O)O)cc1)S(=O)(=O)c1c(F)c(F)c(F)c(F)c1F (2.5 µM)
inactive: [1] 0 | [2] 0 | [3] 0 | [4] 0 | [5] 0 | [6] 0 | [7] 0 | [8] 0 | [9] 0 | [10] 0 | [11] 0 | [12] 0 | [13] 0 | [14] 0 | [15] 0 | [16] 0 | [17] 0 | [18] 0 | [19] 0 | [20] 0

CC[C@@]1(c2ccccc2)C2=C(CC(C)(C)CC2=O)Nc2[nH]ncc21 (10 µM)
inactive: [1] 0 | [2] 0 | [3] 0 | [4] 0 | [5] 0 | [6] 0 | [7] 0 | [8] 0 | [9] 0 | [10] 0 | [11] 0 | [12] 0 | [13] 0 | [14] 0 | [15] 0 | [16] 0 | [17] 0 | [18] 0 | [19] 0 | [20] 0

Looked up by compound from the list above (2):
COc1ccc(CC(=O)Nc2nc3c(s2)CCc2ccccc2-3)cc1OC (10 µM)
inactive: [1] 0 | [2] 0 | [3] 0 | [4] 0 | [5] 0 | [6] 0 | [7] 0 | [8] 0 | [9] 0 | [10] 0 | [11] 0 | [12] 0 | [13] 0 | [14] 0 | [15] 0 | [16] 0 | [17] 0 | [18] 0 | [19] 0 | [20] 0

Fc1ccc(-c2nc(-c3c(F)cccc3F)[nH]c2-c2ccncc2)cc1 (10 µM)
inactive: [1] 0 | [2] 0 | [3] 0 | [4] 0 | [5] 0 | [6] 0 | [7] 0 | [8] 0 | [9] 0 | [10] 0 | [11] 0 | [12] 0 | [13] 0 | [14] 0 | [15] 0 | [16] 0 | [17] 0 | [18] 0 | [19] 0 | [20] 0

Continued.

O=C(NC(NC(=S)Nc1ccc(F)c([N+](=O)[O-])c1)C(Cl)(Cl)Cl)C(c1ccccc1)c1ccccc1 (stereo not given) (10 µM)
inactive: [1] 0 | [2] 0 | [3] 0 | [4] 0 | [5] 0 | [6] 0 | [7] 0 | [8] 0 | [9] 0 | [10] 0 | [11] 0 | [12] 0 | [13] 0 | [14] 0 | [15] 0 | [16] 0 | [17] 0 | [18] 0 | [19] 0 | [20] 0

c1cc2c(cc1O[C@H]1OC[C@H]3[C@@H]1CO[C@@H]3c1ccc3c(c1)OCO3)OCO2 [Sesamolin] (10 µM)
inactive: [1] 0 | [2] 0 | [3] 0 | [4] 0 | [5] 0 | [6] 0 | [7] 0 | [8] 0 | [9] 0 | [10] 0 | [11] 0 | [12] 0 | [13] 0 | [14] 0 | [15] 0 | [16] 0 | [17] 0 | [18] 0 | [19] 0 | [20] 0

CCn1c(=O)c(-c2ccc(-c3cncs3)cc2Cl)cc2cnc(Nc3ccc(N4CCN(C)CC4)cc3)nc21 (2.5 µM)
inactive: [1] 0 | [2] 0 | [3] 0 | [4] 0 | [5] 0 | [6] 0 | [7] 0 | [8] 0 | [9] 0 | [10] 0 | [11] 0 | [12] 0 | [13] 0 | [14] 0 | [15] 0 | [16] 0 | [17] 0 | [18] 0 | [19] 0 | [20] 0

N#Cc1c(-c2ccccc2)cc(-c2cc(Br)ccc2O)[nH]c1=O (10 µM)
inactive: [1] 0 | [2] 0 | [3] 0 | [4] 0 | [5] 0 | [6] 0 | [7] 0 | [8] 0 | [9] 0 | [10] 0 | [11] 0 | [12] 0 | [13] 0 | [14] 0 | [15] 0 | [16] 0 | [17] 0 | [18] 0 | [19] 0 | [20] 0

CC(C)=CCC[C@](C)(O[C@@H]1O[C@H](CO)[C@@H](O)[C@H](O)[C@H]1O)[C@H]1CC[C@]2(C)[C@@H]1[C@H](O)C[C@@H]1[C@@]3(C)CC[C@H](O)C(C)(C)[C@@H]3[C@@H](O[C@@H]3O[C@H](CO)[C@@H](O)[C@H](O)[C@H]3O[C@@H]3O[C@@H](C)[C@H](O)[C@@H](O)[C@H]3O)C[C@]12C [Ginsenoside Re] (10 µM)
inactive: [1] 0 | [2] 0 | [3] 0 | [4] 0 | [5] 0 | [6] 0 | [7] 0 | [8] 0 | [9] 0 | [10] 0 | [11] 0 | [12] 0 | [13] 0 | [14] 0 | [15] 0 | [16] 0 | [17] 0 | [18] 0 | [19] 0 | [20] 0

Cn1nccc1Nc1nccc(-c2cc3c(s2)C(C)(C)N(CCN2CCOCC2)C3=O)n1 (10 µM)
inactive: [1] 0 | [2] 0 | [3] 0 | [4] 0 | [5] 0 | [6] 0 | [7] 0 | [8] 0 | [9] 0 | [10] 0 | [11] 0 | [12] 0 | [13] 0 | [14] 0 | [15] 0 | [16] 0 | [17] 0 | [18] 0 | [19] 0 | [20] 0

Cc1cc(Nc2cc3ncccc3c(N[C@@H]3C[C@H]4CC[C@@H](C3)N4CCC#N)n2)n[nH]1 [Izencitinib] (10 µM)
inactive: [1] 0 | [2] 0 | [3] 0 | [4] 0 | [5] 0 | [6] 0 | [7] 0 | [8] 0 | [9] 0 | [10] 0 | [11] 0 | [12] 0 | [13] 0 | [14] 0 | [15] 0 | [16] 0 | [17] 0 | [18] 0 | [19] 0 | [20] 0

CCn1c(=O)c(-c2ccc(-c3cncc(C)n3)cc2Cl)cc2cnc(NCCC3CCN(C)CC3)nc21 (10 µM)
inactive: [1] 0 | [2] 0 | [3] 0 | [4] 0 | [5] 0 | [6] 0 | [7] 0 | [8] 0 | [9] 0 | [10] 0 | [11] 0 | [12] 0 | [13] 0 | [14] 0 | [15] 0 | [16] 0 | [17] 0 | [18] 0 | [19] 0 | [20] 0

CC(C)CN[C@H]1CS(=O)(=O)C[C@@H]1S(=O)(=O)c1ccc(Cl)cc1 (10 µM)
inactive: [1] 0 | [2] 0 | [3] 0 | [4] 0 | [5] 0 | [6] 0 | [7] 0 | [8] 0 | [9] 0 | [10] 0 | [11] 0 | [12] 0 | [13] 0 | [14] 0 | [15] 0 | [16] 0 | [17] 0 | [18] 0 | [19] 0 | [20] 0

O=C(Nc1cc(Oc2cc(F)c(NC(=O)C3(C(=O)Nc4ccc(F)cc4)CC3)cc2F)ccn1)C1CC1 [Altiratinib] (10 µM)
active: [10] 1
inactive: [1] 0 | [2] 0 | [3] 0 | [4] 0 | [5] 0 | [6] 0 | [7] 0 | [8] 0 | [9] 0 | [11] 0 | [12] 0 | [13] 0 | [14] 0 | [15] 0 | [16] 0 | [17] 0 | [18] 0 | [19] 0 | [20] 0

Cc1csc(-c2nnc(Nc3ccc(Oc4ncccc4-c4ccnc(N)n4)cc3)c3ccccc23)c1 (2.5 µM)
inactive: [1] 0 | [2] 0 | [3] 0 | [4] 0 | [5] 0 | [6] 0 | [7] 0 | [8] 0 | [9] 0 | [10] 0 | [11] 0 | [12] 0 | [13] 0 | [14] 0 | [15] 0 | [16] 0 | [17] 0 | [18] 0 | [19] 0 | [20] 0

Nc1ncnc2c1ncn2[C@@H]1O[C@H](CO)C[C@H]1O [Cordycepin] (10 µM)
inactive: [1] 0 | [2] 0 | [3] 0 | [4] 0 | [5] 0 | [6] 0 | [7] 0 | [8] 0 | [9] 0 | [10] 0 | [11] 0 | [12] 0 | [13] 0 | [14] 0 | [15] 0 | [16] 0 | [17] 0 | [18] 0 | [19] 0 | [20] 0

O=C1Nc2nc(-c3c(O)cccc3OCC3CC3)cc([C@@H]3CCCNC3)c2CO1 [Bay 65-1942 (hydrochloride)] (10 µM)
inactive: [1] 0 | [2] 0 | [3] 0 | [4] 0 | [5] 0 | [6] 0 | [7] 0 | [8] 0 | [9] 0 | [10] 0 | [11] 0 | [12] 0 | [13] 0 | [14] 0 | [15] 0 | [16] 0 | [17] 0 | [18] 0 | [19] 0 | [20] 0
